No constants are given. Whether binding was seen depends on the method and setting. For part of these data: Binding seen in cells or lysates may run through a third protein. Some entries that bind do so weakly or less than the wild type.
Tests used:
[1] = molecular target: Axin2, endogenous protein in SW480 cells (human) (UniProt Q9Y2T1); experiment: co-immunoprecipitation of endogenous proteins from SW480 lysate
[2] = molecular target: Axin2, endogenous protein in SW480 cells (human) (UniProt Q9Y2T1); experiment: co-immunoprecipitation with anti-Axin2 antibody from SW480 lysate, immunoblot
[3] = molecular target: TNKS1 (human), yeast two-hybrid prey in pGAD-T7 (human) (UniProt O95271); experiment: yeast two-hybrid with Axin1 fragments

By UniProt entry, the sequences of proteins in these tests, tags left out. Where a name states a change or a piece, a line headed by the entry shows the natural chain unless it says otherwise.
UniProt Q9Y2T1: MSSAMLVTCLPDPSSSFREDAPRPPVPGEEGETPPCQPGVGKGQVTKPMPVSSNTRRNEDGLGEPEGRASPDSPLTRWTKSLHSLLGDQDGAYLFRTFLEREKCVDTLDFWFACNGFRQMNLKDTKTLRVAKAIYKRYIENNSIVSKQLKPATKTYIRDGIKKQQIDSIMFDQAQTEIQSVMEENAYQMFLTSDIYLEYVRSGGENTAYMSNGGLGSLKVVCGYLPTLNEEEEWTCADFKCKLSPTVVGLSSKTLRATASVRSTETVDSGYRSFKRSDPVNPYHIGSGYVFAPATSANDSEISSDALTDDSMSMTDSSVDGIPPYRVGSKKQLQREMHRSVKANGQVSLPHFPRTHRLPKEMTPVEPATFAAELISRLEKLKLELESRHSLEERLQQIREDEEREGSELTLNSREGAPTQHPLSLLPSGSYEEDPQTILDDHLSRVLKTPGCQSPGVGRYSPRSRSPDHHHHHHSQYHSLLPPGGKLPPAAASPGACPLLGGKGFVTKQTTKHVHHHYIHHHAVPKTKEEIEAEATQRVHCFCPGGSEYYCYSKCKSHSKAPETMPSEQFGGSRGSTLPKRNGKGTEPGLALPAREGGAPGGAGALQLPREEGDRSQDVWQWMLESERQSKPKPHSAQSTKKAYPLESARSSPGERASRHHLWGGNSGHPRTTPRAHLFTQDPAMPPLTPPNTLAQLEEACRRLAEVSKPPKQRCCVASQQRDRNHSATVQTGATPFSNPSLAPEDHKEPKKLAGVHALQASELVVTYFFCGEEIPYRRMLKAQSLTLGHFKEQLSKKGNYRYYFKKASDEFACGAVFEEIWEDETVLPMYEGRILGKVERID
UniProt O95271: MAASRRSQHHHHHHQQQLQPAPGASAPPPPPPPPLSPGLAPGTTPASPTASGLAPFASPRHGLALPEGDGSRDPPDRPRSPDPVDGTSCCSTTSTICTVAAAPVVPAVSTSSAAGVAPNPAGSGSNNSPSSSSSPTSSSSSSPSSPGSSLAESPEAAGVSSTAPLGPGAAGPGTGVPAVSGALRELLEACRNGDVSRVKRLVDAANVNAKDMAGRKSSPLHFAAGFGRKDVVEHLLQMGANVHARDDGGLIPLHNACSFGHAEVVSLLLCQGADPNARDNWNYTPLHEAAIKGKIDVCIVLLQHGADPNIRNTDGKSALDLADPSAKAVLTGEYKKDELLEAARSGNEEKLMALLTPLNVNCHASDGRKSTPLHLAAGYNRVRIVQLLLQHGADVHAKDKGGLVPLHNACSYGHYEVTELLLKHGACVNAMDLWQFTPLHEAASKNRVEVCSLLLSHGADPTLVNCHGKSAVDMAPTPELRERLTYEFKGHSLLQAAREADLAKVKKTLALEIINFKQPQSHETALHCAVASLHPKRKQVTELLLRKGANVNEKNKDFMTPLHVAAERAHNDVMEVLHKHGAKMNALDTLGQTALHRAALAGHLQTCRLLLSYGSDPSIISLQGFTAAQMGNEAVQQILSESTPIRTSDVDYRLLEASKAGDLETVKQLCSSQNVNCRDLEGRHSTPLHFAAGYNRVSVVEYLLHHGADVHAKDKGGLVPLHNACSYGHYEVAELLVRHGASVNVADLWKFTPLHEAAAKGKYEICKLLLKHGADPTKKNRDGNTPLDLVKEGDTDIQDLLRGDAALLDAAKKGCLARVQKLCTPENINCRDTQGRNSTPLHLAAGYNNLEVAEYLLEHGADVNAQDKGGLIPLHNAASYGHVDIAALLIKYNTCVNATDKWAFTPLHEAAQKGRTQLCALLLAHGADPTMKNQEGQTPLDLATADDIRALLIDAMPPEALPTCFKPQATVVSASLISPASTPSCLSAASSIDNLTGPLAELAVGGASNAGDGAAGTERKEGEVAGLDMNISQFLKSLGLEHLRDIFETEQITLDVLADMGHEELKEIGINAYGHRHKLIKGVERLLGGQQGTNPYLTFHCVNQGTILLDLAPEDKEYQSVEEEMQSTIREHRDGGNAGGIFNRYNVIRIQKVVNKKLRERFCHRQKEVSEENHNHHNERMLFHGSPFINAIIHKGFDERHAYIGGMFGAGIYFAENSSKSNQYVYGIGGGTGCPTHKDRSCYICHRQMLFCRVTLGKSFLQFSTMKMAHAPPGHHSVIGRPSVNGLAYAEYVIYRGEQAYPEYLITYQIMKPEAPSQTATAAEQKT
UniProt O35625: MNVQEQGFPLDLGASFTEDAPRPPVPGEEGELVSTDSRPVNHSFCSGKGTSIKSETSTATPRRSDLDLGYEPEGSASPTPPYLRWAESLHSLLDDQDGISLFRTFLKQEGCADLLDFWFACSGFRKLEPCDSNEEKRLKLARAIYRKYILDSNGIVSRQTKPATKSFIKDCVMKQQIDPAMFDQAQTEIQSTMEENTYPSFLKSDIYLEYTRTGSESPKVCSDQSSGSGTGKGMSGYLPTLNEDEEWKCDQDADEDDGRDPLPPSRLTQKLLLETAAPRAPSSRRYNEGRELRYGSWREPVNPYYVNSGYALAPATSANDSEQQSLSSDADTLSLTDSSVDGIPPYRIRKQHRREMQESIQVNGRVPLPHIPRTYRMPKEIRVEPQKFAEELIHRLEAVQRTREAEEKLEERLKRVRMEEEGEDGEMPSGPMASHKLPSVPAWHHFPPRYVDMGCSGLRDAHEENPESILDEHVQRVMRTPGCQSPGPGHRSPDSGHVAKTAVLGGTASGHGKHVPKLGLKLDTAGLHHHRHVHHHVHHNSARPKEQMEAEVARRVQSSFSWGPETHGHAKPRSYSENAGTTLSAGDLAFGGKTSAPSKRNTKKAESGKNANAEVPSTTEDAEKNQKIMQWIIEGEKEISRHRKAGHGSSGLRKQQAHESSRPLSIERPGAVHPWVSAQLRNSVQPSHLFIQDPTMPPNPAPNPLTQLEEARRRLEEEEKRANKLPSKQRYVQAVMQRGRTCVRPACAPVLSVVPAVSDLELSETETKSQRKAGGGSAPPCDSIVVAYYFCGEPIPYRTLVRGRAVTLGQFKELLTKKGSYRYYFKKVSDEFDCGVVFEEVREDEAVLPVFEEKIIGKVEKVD

Row | Binder | binding [1] | binding [2] | binding [3]
1 | TNKS2 (Tankyrase 2), endogenous protein in SW480 cells (enzyme, human, UniProt Q9H2K2 1-1166, looked up) MSGRRCAGGGAACASAAAEAVEPAARELFEACRNGDVERVKRLVTPEKVNSRDTAGRKSTPLHFAAGFGRKDVVEYLLQNGANVQARDDGGLIPLHNACSFGHAEVVNLLLRHGADPNARDNWNYTPLHEAAIKGKIDVCIVLLQHGAEPTIRNTDGRTALDLADPSAKAVLTGEYKKDELLESARSGNEEKMMALLTPLNVNCHASDGRKSTPLHLAAGYNRVKIVQLLLQHGADVHAKDKGDLVPLHNACSYGHYEVTELLVKHGACVNAMDLWQFTPLHEAASKNRVEVCSLLLSYGADPTLLNCHNKSAIDLAPTPQLKERLAYEFKGHSLLQAAREADVTRIKKHLSLEMVNFKHPQTHETALHCAAASPYPKRKQICELLLRKGANINEKTKEFLTPLHVASEKAHNDVVEVVVKHEAKVNALDNLGQTSLHRAAYCGHLQTCRLLLSYGCDPNIISLQGFTALQMGNENVQQLLQEGISLGNSEADRQLLEAAKAGDVETVKKLCTVQSVNCRDIEGRQSTPLHFAAGYNRVSVVEYLLQHGADVHAKDKGGLVPLHNACSYGHYEVAELLVKHGAVVNVADLWKFTPLHEAAAKGKYEICKLLLQHGADPTKKNRDGNTPLDLVKDGDTDIQDLLRGDAALLDAAKKGCLARVKKLSSPDNVNCRDTQGRHSTPLHLAAGYNNLEVAEYLLQHGADVNAQDKGGLIPLHNAASYGHVDVAALLIKYNACVNATDKWAFTPLHEAAQKGRTQLCALLLAHGADPTLKNQEGQTPLDLVSADDVSALLTAAMPPSALPSCYKPQVLNGVRSPGATADALSSGPSSPSSLSAASSLDNLSGSFSELSSVVSSSGTEGASSLEKKEVPGVDFSITQFVRNLGLEHLMDIFEREQITLDVLVEMGHKELKEIGINAYGHRHKLIKGVERLISGQQGLNPYLTLNTSGSGTILIDLSPDDKEFQSVEEEMQSTVREHRDGGHAGGIFNRYNILKIQKVCNKKLWERYTHRRKEVSEENHNHANERMLFHGSPFVNAIIHKGFDERHAYIGGMFGAGIYFAENSSKSNQYVYGIGGGTGCPVHKDRSCYICHRQLLFCRVTLGKSFLQFSAMKMAHSPPGHHSVTGRPSVNGLALAEYVIYRGEQAYPEYLITYQIMRPEGMVDG | binds | binds | –
2 | DAPRPPVPGEEG (peptide, UniProt O35625 19-30, looked up, not shown: large carriers) [Axin1 N-terminal region amino acid 19-30 (TBD, Tankyrase-Binding Domain), yeast two-hybrid fragment] | – | – | binds
